From PMC5967306
These are yes or no findings as the source states them, for the method shown. Binding seen in cells or lysates may run through a third protein. Some results given as binding are weak or reduced against the parent protein; the word gives no strength.

Biological target: p53 (human (endogenous in HEK-293)) (UniProt P04637)
Experiment: co-IP; HEK-293 cell lysate immunoprecipitated with p53 (DO-1) antibody, immunoblotted

B1: FAM188B (protein, UniProt Q4G0A6 1-757)
chain: MDSLFVEEVAASLVREFLSRKGLKKTCVTMDQERPRSDLSINNRNDLRKVLHLEFLYKENKAKENPLKTSLELITRYFLDHFGNTANNFTQDTPIPALSVPKKNNKVPSRCSETTLVNIYDLSDEDAGWRTSLSETSKARHDNLDGDVLGNFVSSKRPPHKSKPMQTVPGETPVLTSAWEKIDKLHSEPSLDVKRMGENSRPKSGLIVRGMMSGPIASSPQDSFHRHYLRRSSPSSSSTQPQEESRKVPELFVCTQQDILASSNSSPSRTSLGQLSELTVERQKTTASSPPHLPSKRLPPWDRARPRDPSEDTPAVDGSTDTDRMPLKLYLPGGNSRMTQERLERAFKRQGSQPAPVRKNQLLPSDKVDGELGALRLEDVEDELIREEVILSPVPSVLKLQTASKPIDLSVAKEIKTLLFGSSFCCFNEEWKLQSFSFSNTASLKYGIVQNKGGPCGVLAAVQGCVLQKLLFEGDSKADCAQGLQPSDAHRTRCLVLALADIVWRAGGRERAVVALASRTQQFSPTGKYKADGVLETLTLHSLTCYEDLVTFLQQSIHQFEVGPYGCILLTLSAILSRSTELIRQDFDVPTSHLIGAHGYCTQELVNLLLTGKAVSNVFNDVVELDSGDGNITLLRGIAARSDIGFLSLFEHYNMCQVGCFLKTPRFPIWVVCSESHFSILFSLQPGLLRDWRTERLFDLYYYDGLANQQEQIRLTIDTTQTISEDTDNDLVPPLELCIRTKWKGASVNWNGSDPIL
binding: binds
